Results deposited as PubChem BioAssay AID1224826 (NIAID, 2016).

Test: 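Knock-downs that raise or lower Tnf reporter signal after endotoxin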 (primary screen)
System: RAW264.7 G9 macrophages from mouse bearing reporters for p65 (GFP) and the Tnf promoter (mCherry)
Reagent: siRNA pool against mouse genes, 100 nM
Timing: 16 h of LPS stimulation, after 2 days of siRNA transfection
Treatment: bacterial lipopolysaccharide (Salmonella minnesota R595), 10 ng/ml
Measurement: 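Imaged Tnf reporter mCherry in nuclei, minus background, normalised per plate to the median and expressed as robust z-scores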
Scale: Tnf reporter robust z-score: higher = stronger Tnf promoter reporter signal after LPS; Tnf reporter intensity: higher = stronger Tnf promoter reporter signal
Rule for the call: 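Called active when robust z-score is at most -1.3, matching the median of the Tlr4 knock-down control, or over 3; control wells and wells with under 50 cells never active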
Calls: active = Tnf reporter clearly lowered or raised; inactive = no clear change in Tnf reporter
The deposit covers about 17,000 reagents; this is a part drawn at random. Of all reagents, about 1,110 (6.6%) got an active call. 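Active means lowered or raised reporter signal; replicate intensities are raw and not normalised per plate.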

gene | Tnf reporter robust z-score | fewer than 50 cells in well | Tnf reporter intensity, replicate 1 | Tnf reporter intensity, replicate 2 | Outcome
Pcdhb15 | -0.19 | enough cells in well | 179 | 84.7 | inactive
Tekt2 | 0.04 | enough cells in well | 118 | 95.3 | inactive
Dyrk2 | 0.97 | enough cells in well | 319 | 160 | inactive
Chrm5 | -0.14 | enough cells in well | 212 | 220 | inactive
B3gnt7 | 0.77 | enough cells in well | 231 | 192 | inactive
Rbfox1 | 0.86 | enough cells in well | 250 | 167 | inactive
Mgat4c | -0.12 | enough cells in well | 138 | 217 | inactive
Smg9 | 0.92 | enough cells in well | 286 | 117 | inactive
Mrpl53 | 3.29 | enough cells in well | 377 | 280 | active
Ndufb2 | -0.3 | enough cells in well | 208 | 93.3 | inactive
Cel | 1.2 | enough cells in well | 325 | 312 | inactive
Vmn1r49 | -0.38 | enough cells in well | 101 | 80.2 | inactive
5330439M10Rik | -1.32 | enough cells in well | 99.6 | 61.8 | active
Mark1 | 0.27 | enough cells in well | 209 | 180 | inactive
Mtss2 | – | fewer than 50 cells per well; well left out of calls | 13.6 | 82.5 | inactive
Phf19 | – | fewer than 50 cells per well; well left out of calls | 149 | 123 | inactive
Cept1 | 1.35 | enough cells in well | 225 | 277 | inactive
Saxo6 | -0.46 | enough cells in well | 250 | 151 | inactive
Dipk2b | -1 | enough cells in well | 147 | 41 | inactive
Des | 2.17 | enough cells in well | 364 | 249 | inactive
Zfp516 | 2.91 | enough cells in well | 217 | 330 | inactive
Sprr2a1 | -0.73 | enough cells in well | 82.4 | 37.3 | inactive
Pdlim2 | – | fewer than 50 cells per well; well left out of calls | 87.2 | 94.5 | inactive
Cpne9 | 0.78 | enough cells in well | 238 | 170 | inactive
Vmn1r8 | 3.12 | enough cells in well | 226 | 198 | active
Kcnv1 | 0.34 | enough cells in well | 252 | 178 | inactive
Flot1 | 1.29 | enough cells in well | 337 | 208 | inactive
Asap1 | -0.84 | enough cells in well | 123 | 125 | inactive
Ica1 | 0.33 | enough cells in well | 234 | 132 | inactive
Rab1b | -0.97 | enough cells in well | 193 | 51.8 | inactive
Or9s23 | -1.19 | enough cells in well | 132 | 56 | inactive
Neurog3 | 0.04 | enough cells in well | 121 | 168 | inactive
Tcstv2a | 0.65 | enough cells in well | 264 | 217 | inactive
Cldn13 | -1.71 | enough cells in well | 68.2 | 194 | active
Map1s | 0.97 | enough cells in well | 216 | 212 | inactive
Rara | -0.82 | enough cells in well | 224 | 148 | inactive
Ly6a | -0.28 | enough cells in well | 169 | 135 | inactive
Sox21 | 0.6 | enough cells in well | 143 | 98.9 | inactive
Prp15 (retired record) | -0.52 | enough cells in well | 110 | 104 | inactive
E330013P04Rik | -1.63 | enough cells in well | 89.2 | 42.6 | active
Apobec3 | 0.04 | enough cells in well | 166 | 176 | inactive
Ikzf3 | 0.07 | enough cells in well | 225 | 248 | inactive
Shisa7 | – | fewer than 50 cells per well; well left out of calls | 72.4 | 183 | inactive
Ap2a2 | -0.69 | enough cells in well | 164 | 138 | inactive
Ift122 | 0.57 | enough cells in well | 281 | 298 | inactive
Rasgrf2 | 2.13 | enough cells in well | 336 | 277 | inactive
Dscaml1 | – | fewer than 50 cells per well; well left out of calls | 300 | 64.1 | inactive
Mlycd | 1.79 | enough cells in well | 301 | 204 | inactive
Lin9 | -0.17 | enough cells in well | 241 | 64.4 | inactive
Trip11 | – | fewer than 50 cells per well; well left out of calls | 132 | 156 | inactive
Mmp8 | 0.22 | enough cells in well | 234 | 261 | inactive
Gask1b | 2.62 | enough cells in well | 437 | 161 | inactive
Atn1 | -0.26 | enough cells in well | 239 | 161 | inactive
Prmt1 | -0.66 | enough cells in well | 177 | 153 | inactive
Atp2a3 | 0.7 | enough cells in well | 170 | 213 | inactive
2510039O18Rik | -0.2 | enough cells in well | 232 | 82.3 | inactive
Aass | 1.03 | enough cells in well | 192 | 236 | inactive
Slc12a6 | 0.11 | enough cells in well | 213 | 157 | inactive

Sorted by “Tnf reporter intensity, replicate 2” (ascending): 10 of the entries above.
gene | Tnf reporter robust z-score | fewer than 50 cells in well | Tnf reporter intensity, replicate 1 | Tnf reporter intensity, replicate 2 | Outcome
Dscaml1 | – | fewer than 50 cells per well; well left out of calls | 300 | 64.1 | inactive
Lin9 | -0.17 | enough cells in well | 241 | 64.4 | inactive
Prmt1 | -0.66 | enough cells in well | 177 | 153 | inactive
Trip11 | – | fewer than 50 cells per well; well left out of calls | 132 | 156 | inactive
Gask1b | 2.62 | enough cells in well | 437 | 161 | inactive
Atn1 | -0.26 | enough cells in well | 239 | 161 | inactive
Mlycd | 1.79 | enough cells in well | 301 | 204 | inactive
Atp2a3 | 0.7 | enough cells in well | 170 | 213 | inactive
Mmp8 | 0.22 | enough cells in well | 234 | 261 | inactive
Rasgrf2 | 2.13 | enough cells in well | 336 | 277 | inactive
